This passage reports AC50 and cell number change results from PubChem BioAssay AID2685 (National Center for Advancing Translational Sciences (NCATS), 2010).

This is one part of the list. The main result of the screen is listed elsewhere. These columns were measured beside it and carry no call. The list favours compounds with an active or inconclusive main result. Words in brackets tell the shape of the fitted curve; partial curves, single points and poor fits give uncertain potencies.

This assay can be described thus: qHTS Assay for Lipid Storage Modulators in Drosophila S3 Cells.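 As to cell number change: cells counted by Cell Tracker Red CMTPX staining in the red channel.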 Particulars: BODIPY lipid droplet fluorescence, 18-24 h; for cell number change: measured here: cell count max response, cells fed with added oleic acid. Put shortly:
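Drosophila S3 cells loaded with oleic acid (400 uM, as added) and compounds at several concentrations; lipid droplets imaged by 488-nm laser-scanning cytometry, 500–530 nm intensity and object ratio to cell channel. Percent activity normalized to 20 uM Triacsin C.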

The mark [1] stands for this setting: measured here: cell number channel AC50, cells fed with added oleic acid.
Setting [2] is: measured here: lipid fluorescence (Fed channel) AC50, cells fed with added oleic acid.

Consider `O=C1CCc2cc(S(=O)(=O)N3CCCC3C(=O)N3CCN(c4ccccc4)CC3)ccc2N1` (configuration not stated), for which the half-maximal activity concentration (AC50) (commonly the midpoint of the concentration-response curve, whichever way the signal moves) is, setting by setting: under setting [1], 1300 nM [falling, single point]; under setting [2], 1160 nM [falling, partial curve]. For the molecule `Cc1cc(C(=O)N2CCN(c3ccc(F)cc3)CC2)on1`, the cell number change amounted to 4.61%. Also, the concentration at half-maximal activity (AC50) under setting [2] was 651 nM [rising, full curve].

For `COCCn1nnnc1CN(Cc1ccco1)Cc1cc2cc3c(cc2[nH]c1=O)OCO3`, the cell number change was -44%. Also, the half-maximal activity concentration (AC50) under setting [1] was 36.6 nM [falling, full curve, poor fit]. Moreover, under setting [2], the half-maximal activity concentration (AC50) was 5.8 nM [falling, full curve]. In the case of `CN(C)Cc1c(C(=O)N/N=C/c2ccoc2)nnn1-c1nonc1N`, the cell number change was 24.2%. Further, the half-maximal activity concentration (AC50) under setting [1] is 4.61 nM [rising, full curve, poor fit]. Regarding `CCN(CC)c1ccc(NC(=O)CN2CCN(CC(=O)Nc3ccccc3F)CC2)cc1`, the cell number change is -68.3%. Further, the AC50 under setting [1] is 29100 nM [falling, partial curve, poor fit].

Turning to `Cc1sc2ncnc(SC(C)C#N)c2c1C` (configuration not stated), the cell number change was -23.8%. For `COc1cc(/C=C2\NC(=S)N(C)C2=O)ccc1OCc1cccc(F)c1`, the cell number change is 2.84%. On to `CCC(C)(C)N1CC(=O)N(Cc2ccccc2)C(c2ccc(OC)cc2)C1=O` (configuration not stated), for which the cell number change was 17.7%. Further, under setting [2], the AC50 is 13000 nM [rising, single point]. For `CC(CN1CCN(C)CC1)OC(=O)c1cccc(F)c1` (configuration not stated), the cell number change is 11.7%. For the same molecule, under setting [2], the AC50 was 29100 nM [rising, single point]. `O=C(CN1CCN(C(=O)c2cccc(-n3cnnn3)c2)CC1)Nc1ccccc1Cl`: the cell number change came out at 32.1%. Moreover, the AC50 under setting [1] is 29100 nM [rising, single point]. Further, under setting [2], the half-maximal activity concentration (AC50) was 1640 nM [falling, partial curve]. Consider `CC1=C(C(=O)OCc2ccc3c(c2)OCO3)C(c2ccccc2)NC(=O)N1` (configuration not stated), for which the AC50 under setting [2] is 103 nM [rising, full curve]. In the case of `CCc1nnc(NC(=O)c2ccc(COc3ccc(C)cc3)o2)s1`, under setting [1], the AC50 was 2060 nM [rising, partial curve]. `COc1ccc(OCC(O)Cn2c(Br)nc3c2c(=O)[nH]c(=O)n3C)cc1` (configuration not stated): the AC50 under setting [2] is 2910 nM [rising, partial curve].

On to `CCN1CCCC1CNC(=O)c1cc2c(=O)n(C)c3ccccc3c2n1C` (configuration not stated), for which the cell number change is 33.6%. Further, under setting [1], the half-maximal activity concentration (AC50) was 259 nM [rising, full curve, poor fit]. Turning to `COc1ccc(N2CCN(C(=O)c3ccc(SC)cc3OC)CC2)cc1`, the cell number change was 23.7%. Further, under setting [1], the AC50 was 116 nM [falling, full curve, poor fit].

Regarding `CC(C)N1C(=O)CCC1C(=O)N1CCC(Cc2ccccc2)CC1` (configuration not stated), the cell number change was 3.2%. The half-maximal activity concentration (AC50) under setting [2] was 9200 nM [falling, partial curve]. In the case of `O=C(NC1CCCC1)C(c1ccc(Cl)cc1)N1CCN(C2CCCCC2)CC1` (configuration not stated), the cell number change stood at 27.6%.

As for `Cc1sc(NC(=O)C2CCCC2)c(C#N)c1C`, the cell number change was -0.874%. Besides, under setting [2], the half-maximal activity concentration (AC50) was 16400 nM [rising, single point]. Regarding `Cc1ccc(-c2noc(CNCCCN(C)C)n2)cc1`, the cell number change is -16.7%. Further, the half-maximal activity concentration (AC50) under setting [1] is 82 nM [falling, full curve, poor fit]. Further, the AC50 under setting [2] was 130 nM [falling, full curve, poor fit]. As to `Cc1cc(C)c(S(=O)(=O)N(C)CC(=O)NC2CCCC2)c(C)c1`, the cell number change is 18.7%. Besides, under setting [2], the AC50 is 29100 nM [rising, single point]. In the case of `COCCN(C(=O)c1snc(C(N)=O)c1N)C(C(=O)NC1CCCC1)c1cc(OC)c(OC)c(OC)c1` (configuration not stated), the cell number change was 5.88%. For the same molecule, under setting [2], the AC50 is 2310 nM [rising, full curve, poor fit]. Take `Cn1cc(C(=O)NCC2COc3ccccc3O2)c(=O)c2cc(S(=O)(=O)N3CCCCC3)ccc21` (configuration not stated): the cell number change came out at 24.8%. For the same molecule, the AC50 under setting [1] was 517 nM [rising, full curve]. The AC50 under setting [2] is 1840 nM [rising, partial curve]. On to `COc1ccc(NC(C)=O)cc1C#N`, for which the cell number change is 50.6%. In addition, the half-maximal activity concentration (AC50) under setting [2] is 651 nM [rising, partial curve, poor fit]. For `C/C(CCc1oc2c(Br)cc(Br)cc2c1-c1ccc(C)o1)=N\O`, the cell number change was -41.5%. Further, under setting [1], the AC50 is 29100 nM [falling, single point]. The AC50 under setting [2] is 32600 nM [falling, single point].

Consider `C/C(=N/NC(=O)CNC(=O)Cc1ccccc1)c1ccco1`, for which the cell number change was found to be 2.98%.

In the case of `CCOC(=O)Cn1cc(-c2ccccc2)nn1`, the cell number change is -62.8%. The AC50 under setting [1] was 3260 nM [falling, full curve]. In addition, the AC50 under setting [2] is 6510 nM [falling, full curve]. Turning to `O=C1N/C(=C/c2cccn2-c2ccc(F)cc2)C(=O)N1Cc1ccccc1`, the cell number change was 2.03%. The AC50 under setting [1] was 3660 nM [rising, single point]. The AC50 under setting [2] was 23100 nM [rising, partial curve]. On to `CCCc1cc(=O)[nH]c(SCC(=O)N(Cc2ccccc2)C(C)C)n1`, for which the cell number change was -13.9%. Under setting [1], the half-maximal activity concentration (AC50) was 6510 nM [falling, single point]. As to `CC(=O)Nc1cccc(NC(=O)c2ccc3c(c2)CCN3S(=O)(=O)c2ccccc2)c1`, the cell number change was -13.8%. With `C=CCN1C=C2C(=O)C(C)(OC(=O)c3cccs3)C(=O)C=C2C=C1CCCC(=O)OC` (configuration not stated), the cell number change came out at 13.1%. Further, the AC50 under setting [2] is 13000 nM [rising, single point]. For `COc1cc(/C=N/NC(=O)CCC(=O)NC2CCCCC2)ccc1C`, the cell number change is 24.3%.

For `O=C1C2CC=C(Cl)CC2C(=O)N1CCc1c[nH]c2ccccc12` (configuration not stated), the AC50 under setting [1] is 2910 nM [rising, partial curve] and the AC50 under setting [2] is 231 nM [rising, full curve, poor fit]. Take `CC(=O)c1ccc(Sc2ccc(C(C)=O)cc2)cc1`: the cell number change worked out at 12.7%. Further, the half-maximal activity concentration (AC50) under setting [2] is 29100 nM [rising, single point]. In the case of `CC(C)CCNC(=O)C(c1ccc(O)cc1)N(Cc1ccco1)C(=O)CCC(=O)Nc1nccs1` (configuration not stated), the cell number change turned out to be 6.52%.

For `CC1CCN(C(=O)CSc2ccc(-c3cccnc3)nn2)CC1`, the cell number change was -15.2%. Besides, the concentration at half-maximal activity (AC50) under setting [1] is 2310 nM [rising, partial curve]. For `CCOC(=O)COc1cccc2c(=O)n(CC(=O)NCc3ccccc3)ccc12`, the cell number change was -11.1%. The concentration at half-maximal activity (AC50) under setting [2] was 3660 nM [rising, single point]. Regarding `COc1ccc(-c2cccc(NC(=O)c3ccc4c(c3)OCO4)c2)nn1`, the cell number change was determined as 16.8%. In addition, under setting [2], the AC50 was 2590 nM [rising, partial curve]. `CC(C)(C)c1ccc(C(=O)NCC(=O)N2CCNC(=O)C2)cc1`: the cell number change came to 25.6%. The AC50 under setting [2] is 29100 nM [rising, single point]. As for `COc1ccc(CN(Cc2nc3ccccc3c(=O)[nH]2)C(=O)C(C)(C)C)cc1`, the cell number change is 9.41%. Besides, the AC50 under setting [2] is 2910 nM [rising, partial curve, poor fit]. As for `CN(C)CCNC(C(=O)Nc1cccc(C(F)(F)F)c1)c1ccccc1` (configuration not stated), the cell number change was -35.9%. Besides, under setting [2], the AC50 was 164 nM [falling, full curve, poor fit].

With `CCCC(C(=O)NC1CCCC1)N(CCN(CC)CC)C(=O)c1snc(C(N)=O)c1N` (configuration not stated), the cell number change was 9.21%. For the molecule `Cc1ccc(CSc2ccc3nnc(-c4ccccn4)n3n2)cc1`, the cell number change is -25.2%. Under setting [2], the half-maximal activity concentration (AC50) is 820 nM [falling, full curve].

As for `CC(=O)c1ccc(NC(=S)NC2CCCC(C)C2C)cc1` (configuration not stated), the cell number change was 17.2%. Moreover, the concentration at half-maximal activity (AC50) under setting [2] was 231 nM [falling, full curve]. `CCOC(=O)C1=C(C)NC(=O)NC1c1ccc2c(c1)OCO2` (configuration not stated): the half-maximal activity concentration (AC50) under setting [1] is 2910 nM [rising, partial curve]. As to `Cc1[nH]nc2c1C(c1ccsc1C)C(C#N)=C(N)O2` (configuration not stated), the cell number change came to 3.69%. Turning to `N#Cc1c2n(c(=S)n(-c3ccc(F)cc3)c1=O)CCCCC2`, the cell number change turned out to be 12.5%. Moreover, under setting [2], the concentration at half-maximal activity (AC50) was 16400 nM [rising, single point]. Consider `Cc1ccc(NC(=O)COc2ccc3c(c2)CCC3)nc1`, for which the cell number change is 3.37%. Further, the AC50 under setting [1] is 51.7 nM [falling, full curve, poor fit].

Turning to `Cn1c(C(=O)O)cc2cc(F)ccc21`, the cell number change was determined as 16.7%. Also, under setting [2], the AC50 is 6510 nM [falling, single point]. Turning to `O=C(COc1ccc(Cl)cc1)NCc1nnc(SCC(=O)N2CCCc3ccccc32)o1`, the cell number change was -1.04%. For the same molecule, the concentration at half-maximal activity (AC50) under setting [2] was 326 nM [rising, single point]. In the case of `O=S(=O)(Nc1nc2ccccc2nc1NCCN1CCOCC1)c1cccc(Cl)c1`, the cell number change is 1.95%. Take `COC(=O)C(C)NC(=O)C12CC3CC(CC(C3)C1)C2` (configuration not stated): the cell number change was -52.1%. The AC50 under setting [1] was 29100 nM [falling, single point]. In addition, the AC50 under setting [2] was 29100 nM [falling, single point]. In the case of `O=C(CSc1nc2ccccc2s1)N/N=C/c1ccc(C(=O)O)cc1`, the cell number change worked out at 9.13%. In addition, the half-maximal activity concentration (AC50) under setting [2] is 82 nM [falling, full curve, poor fit].

In the case of `CCN(Cc1ccncc1)Cc1nc(-c2ccc(C(=O)OC)cc2)no1`, the cell number change was -11.4%. Consider `Cc1nc(-c2cccc(N)c2)cs1`, for which the cell number change amounted to 50.4%. The half-maximal activity concentration (AC50) under setting [1] is 25900 nM [rising, single point]. Regarding `CCn1c(SCC(=O)Nc2cccc(OC)c2)nc2ccccc2c1=O`, the cell number change is -35.4%. In addition, under setting [1], the AC50 is 651 nM [falling, partial curve, poor fit]. Moreover, the AC50 under setting [2] is 411 nM [falling, single point]. With `Cc1cccc(CCNC(=O)CNS(=O)(=O)c2ccc3nc(C)sc3c2)c1`, the cell number change was 6.8%. Moreover, the concentration at half-maximal activity (AC50) under setting [2] is 20600 nM [rising, partial curve].

Turning to `C/C(=N\OC(=O)Nc1ccc(Cl)cc1)c1ncc(C(F)(F)F)cc1N1CCOCC1`, the cell number change was determined as 42.3%. In addition, the AC50 under setting [1] was 9200 nM [rising, partial curve, poor fit]. On to `CCc1nn(CC(=O)N2CCN(c3cc(C)ccc3C)CC2)c(=O)c2cc3occc3n12`, for which the cell number change is -2.65%. Further, under setting [2], the AC50 is 6510 nM [falling, single point]. Take `Cc1nc(-c2ccc(S(=O)(=O)Nc3ccc(Br)cc3F)cc2)co1`: the cell number change was 0.917%. `Cc1ccc(NC2CCCN(C(=O)c3ccc(C)c(N4CCNC4=O)c3)C2)cc1C` (configuration not stated): the cell number change is 46.2%. Moreover, under setting [1], the concentration at half-maximal activity (AC50) was 18400 nM [rising, single point]. The AC50 under setting [2] is 29100 nM [rising, single point].

As for `COc1cc(/C=N/N2CCN(c3ccccc3OC)CC2)ccc1OC(C)=O`, the cell number change was found to be 21.2%. Further, the AC50 under setting [1] was 7310 nM [rising, partial curve]. The concentration at half-maximal activity (AC50) under setting [2] was 580 nM [falling, single point].
